Assay results as given in PMC10778189.

The chains behind the UniProt entries cited, without tags or fusion partners. Residues count along the entry.
UniProt Q69ZK9, residues 15-836: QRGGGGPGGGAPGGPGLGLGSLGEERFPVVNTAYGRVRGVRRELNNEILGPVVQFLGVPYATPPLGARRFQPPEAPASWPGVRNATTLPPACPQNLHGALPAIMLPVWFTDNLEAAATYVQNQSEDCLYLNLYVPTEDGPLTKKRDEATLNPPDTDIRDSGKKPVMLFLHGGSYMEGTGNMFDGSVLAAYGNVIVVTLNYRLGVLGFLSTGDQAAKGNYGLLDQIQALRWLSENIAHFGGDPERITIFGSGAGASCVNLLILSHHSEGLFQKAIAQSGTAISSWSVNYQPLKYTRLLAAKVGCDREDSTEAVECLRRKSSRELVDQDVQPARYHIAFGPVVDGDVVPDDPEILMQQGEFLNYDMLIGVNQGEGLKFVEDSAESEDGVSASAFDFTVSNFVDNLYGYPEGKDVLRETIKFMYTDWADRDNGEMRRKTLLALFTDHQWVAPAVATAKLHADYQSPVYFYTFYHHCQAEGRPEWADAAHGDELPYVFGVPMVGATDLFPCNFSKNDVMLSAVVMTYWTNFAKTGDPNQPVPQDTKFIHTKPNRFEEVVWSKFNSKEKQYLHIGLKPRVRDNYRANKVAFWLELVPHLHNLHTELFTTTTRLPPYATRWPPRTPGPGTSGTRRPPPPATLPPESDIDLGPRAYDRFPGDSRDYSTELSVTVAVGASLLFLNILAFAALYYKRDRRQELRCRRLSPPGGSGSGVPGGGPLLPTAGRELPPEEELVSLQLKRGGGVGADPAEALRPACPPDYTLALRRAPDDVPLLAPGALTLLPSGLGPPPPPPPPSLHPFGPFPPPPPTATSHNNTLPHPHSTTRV

Assays:
Test in all cases: affinity purification with mass spectrometry; immunoprecipitation with 2 µg antibody (anti-α5, anti-α1, anti-Nlgn2 or control anti-GluA2/3) from 1% MNG extracts of mouse hippocampus and olfactory bulb, overnight 4 °C, protein A/G plus agarose beads, four washes with 0.1% MNG, 25 mM HEPES, 150 mM NaCl pH 7.4; SDS-PAGE, diaPASEF mass spectrometry; iBAQ normalised to the bait
[1] = target: GABAA receptor α5 subunit (Gabra5) (mouse (endogenous in hippocampus and olfactory bulb)) (UniProt Q8BHJ7)
[2] = target: GABAA receptor α1 subunit (Gabra1) (mouse (endogenous in hippocampus and olfactory bulb)) (UniProt P62812)
[3] = target: T1, GABAA receptor α1 subunit (Gabra1) (mouse (endogenous in hippocampus and olfactory bulb)), P62812; conditions: remark: other sources report otherwise
T1 chain: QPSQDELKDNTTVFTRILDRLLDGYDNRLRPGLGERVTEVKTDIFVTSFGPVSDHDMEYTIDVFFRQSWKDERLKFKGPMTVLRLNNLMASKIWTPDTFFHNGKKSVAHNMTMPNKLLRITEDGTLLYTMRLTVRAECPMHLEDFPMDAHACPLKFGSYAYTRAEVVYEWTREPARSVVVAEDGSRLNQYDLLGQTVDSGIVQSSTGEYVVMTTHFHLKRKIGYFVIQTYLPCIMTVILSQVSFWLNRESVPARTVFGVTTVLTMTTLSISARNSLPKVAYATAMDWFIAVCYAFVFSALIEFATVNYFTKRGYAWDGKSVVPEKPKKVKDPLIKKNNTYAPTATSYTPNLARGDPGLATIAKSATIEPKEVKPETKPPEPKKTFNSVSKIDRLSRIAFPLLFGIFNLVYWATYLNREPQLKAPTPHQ

[4] = target: T2, GABAA receptor α5 subunit (Gabra5) (mouse (endogenous in hippocampus and olfactory bulb)), Q8BHJ7; conditions: remark: other sources report otherwise
T2 chain: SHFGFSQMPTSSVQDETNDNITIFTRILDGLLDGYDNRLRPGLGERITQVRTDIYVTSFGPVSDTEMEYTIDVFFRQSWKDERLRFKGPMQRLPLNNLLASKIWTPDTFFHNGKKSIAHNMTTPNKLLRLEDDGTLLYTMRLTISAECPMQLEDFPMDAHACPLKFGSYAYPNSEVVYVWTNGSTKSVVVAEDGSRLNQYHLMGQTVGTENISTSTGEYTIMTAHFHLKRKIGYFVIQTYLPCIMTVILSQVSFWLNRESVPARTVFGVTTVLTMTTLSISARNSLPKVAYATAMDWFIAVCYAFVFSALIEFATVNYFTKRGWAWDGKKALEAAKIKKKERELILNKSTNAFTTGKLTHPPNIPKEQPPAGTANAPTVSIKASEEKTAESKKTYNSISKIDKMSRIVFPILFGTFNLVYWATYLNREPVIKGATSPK

Molecule: GABAA receptor δ subunit (from UniProt P22933 25-449)
binding [1]: binds

B1: GABAA receptor α4 subunit, Q9D6F4 36-552 (protein)
chain: QNSKDEKLCPENFTRILDSLLDGYDNRLRPGFGGPVTEVKTDIYVTSFGPVSDVEMEYTMDVFFRQTWIDKRLKYDGPIEILRLNNMMVTKVWTPDTFFRNGKKSVSHNMTAPNKLFRIMRNGTILYTMRLTISAECPMRLVDFPMDGHACPLKFGSYAYPKSEMIYTWTKGPEKSVEVPKESSSLVQYDLIGQTVSSETIKSITGEYIVMTVYFHLRRKMGYFMIQTYIPCIMTVILSQVSFWINKESVPARTVFGITTVLTMTTLSISARHSLPKVSYATAMDWFIAVCFAFVFSALIEFAAVNYFTNIQMQKAKKKISKPPPEVPAAPVLKEKHTETSLQNTHANLNMRKRTNALVHSESDVKSRTEVGNHSSKTSAVQESSEATPKAHLASSPNPFSRANAAETMSAAARGLSSAASPSPHGTLRPASLGSASTRPAFGSRLGRIKTTVNTTGAAGNVSATPPPPAPPPSGSGTSKIDKYARILFPVTFGAFNMVYWVVYLSKDTMEKSESLM
binding [3]: binds

B3: GABAA receptor α2 subunit, P26048 29-451 (protein)
chain: NIQEDEAKNNITIFTRILDRLLDGYDNRLRPGLGDSITEVFTNIYVTSFGPVSDTDMEYTIDVFFRQKWKDERLKFKGPMNILRLNNLMASKIWTPDTFFHNGKKSVAHNMTMPNKLLRIQDDGTLLYTMRLTVQAECPMHLEDFPMDAHSCPLKFGSYAYTTSEVTYIWTYNASDSVQVAPDGSRLNQYDLLGQSIGKETIKSSTGEYTVMTAHFHLKRKIGYFVIQTYLPCIMTVILSQVSFWLNRESVPARTVFGVTTVLTMTTLSISARNSLPKVAYATAMDWFIAVCYAFVFSALIEFATVNYFTKRGWAWDGKSVVNDKKKEKGSVMIQNNAYAVAVANYAPNLSKDPVLSTISKSATTPEPNKKPENKPAEAKKTFNSVSKIDRMSRIVFPVLFGTFNLVYWATYLNREPVLGVSP
binding [4]: binds

Continued, values first:

binding [1]: binds | binding [2]: binds
Molecule: Neuroligin 2 (Nlgn2) (from UniProt Q69ZK9 15-836)

binding [2]: binds
B2: Lipoma HMGIC fusion partner-like 4 (Lhfpl4) (protein, UniProt Q5U4E0 1-247)
chain: MLPSQEASKLYHEHYMRNSRAIGVLWAIFTICFAIINVVVFIQPYWVGDSVSTPKPGYFGLFHYCVGSGLAGRELTCRGSFTDFSTIPSSAFKAAAFFVLLSMVLILGCITCFALFFFCNTATVYKICAWMQLLAALCLVLGCMIFPDGWDAETIRDMCGAKTGKYSLGDCSVRWAYILAIIGILNALILSFLAFVLGNRQTDLLQEELKQENKDFVGTTVSSVLRPGGDVSGWGVLPCPVAHTQGP

No constants are given. Whether binding was seen depends on the method and setting. Binding seen in cells or lysates may run through a third protein. These calls come from enrichment with a bait or labelling near it, and not all partners need be listed. For part of these data: Sequences can lack the tags named with a protein. One block for each molecule: values may come before it.
